Experimental data reported in article PMC11904993, “Humanized Candida and NanoBiT Assays Expedite Discovery of Bdf1 Bromodomain Inhibitors With Antifungal Potential” (Advanced Science, 2025).
For part of its entries the source gives two or more results. The other results are left out here. The source may hold further records. The records of an entry do not match, cause unknown; they may come from other doses, times, organisms or constructs than stated.

Tests used:
[1] = molecular target: human Brd4 BD1 (Homo sapiens, UniProt O60885); assay: HTRF assay, inhibition of H4ac4 peptide binding; details: Fig 1D/2A original data; single experiments Exp1-3
[2] = molecular target: human Brd4 BD2 (Homo sapiens, UniProt O60885); assay: HTRF assay, inhibition of H4ac4 peptide binding; details: Fig 1D/2A original data; single experiments Exp1-3

Structure (SMILES)	pIC50 hBrd4 BD1 [1]	pIC50 hBrd4 BD2 [2]
COc1cccc(NC(=O)Cn2ccc3ccc(-c4nnc(C)o4)cc32)c1	≤ 4.4 and 4.499	
Cn1nccc1C(=O)NCc1ccc(-c2nc(-c3cccs3)no2)s1 [Compound 63]		≤ 4 and 4.535
COc1cc2nc(C(=O)N3CCCCC3)cc(Nc3ccc(Br)cc3)c2cc1OC	≤ 4.4 and ≤ 4	4.662, ≤ 4.4, 4.852
